Data reported in patent US20230060388A1.
Results are given in words; binding and its absence hold for the method and conditions named. Some results given as binding are weak or reduced against the parent protein; the word gives no strength. For some assays here: Sequences can lack the tags named with a protein.

The chains behind the UniProt entries cited, without tags or fusion partners. Where a name states a change or a piece, a line headed by the entry shows the natural chain unless it says otherwise. A line that says so, or that is headed by a name, gives the form on record, which may keep a tag or linker. Residues count along the entry.
UniProt P08637, residues 17-208: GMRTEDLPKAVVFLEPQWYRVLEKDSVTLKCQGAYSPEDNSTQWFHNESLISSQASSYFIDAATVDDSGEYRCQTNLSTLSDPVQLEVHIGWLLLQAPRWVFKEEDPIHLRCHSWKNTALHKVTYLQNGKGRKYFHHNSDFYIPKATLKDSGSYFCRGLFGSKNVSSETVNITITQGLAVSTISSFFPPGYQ
UniProt Q15116: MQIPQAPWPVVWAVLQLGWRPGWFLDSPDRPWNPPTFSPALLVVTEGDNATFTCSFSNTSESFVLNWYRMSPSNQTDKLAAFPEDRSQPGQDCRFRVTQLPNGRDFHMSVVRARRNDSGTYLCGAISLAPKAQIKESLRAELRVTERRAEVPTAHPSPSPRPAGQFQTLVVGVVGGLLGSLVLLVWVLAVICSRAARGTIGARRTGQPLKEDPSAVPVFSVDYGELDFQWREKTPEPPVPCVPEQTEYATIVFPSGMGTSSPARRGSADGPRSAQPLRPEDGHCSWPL
human PD1 expressed on transfected Jurkat cells: residues 25-288 of Q15116
his-tagged recombinant human PD1 ECD: residues 25-170 of Q15116

What was measured:
[1] = molecular target: human TIGIT expressed on cells (stably transfected Jurkat cells) (human) (UniProt Q495A1); assay: flow cytometry on h-TIGIT transfected Jurkat cells, anti-human IgG Fc Alexa Fluor 488
[2] = molecular target: human TIGIT expressed on cells (stably transfected Jurkat cells) (human) (UniProt Q495A1); assay: flow cytometry, h-TIGIT Jurkat cells
[3] = molecular target: recombinant ECD of human FcγRIIIA (human) (UniProt P08637); assay: Octet, FcγR ECD on sensor, 5 concentrations
[4] = molecular target: recombinant ECD of human FcγRIIIA (human) (UniProt P08637); assay: Octet (ForteBio), receptor ECD loaded on the sensor, antibody at 5 concentrations (not given) [h-FcγRIIIA binding]
[5] = molecular target: recombinant ECD of human FcγRIIIA (human) (UniProt P08637); assay: Octet, recombinant FcγR ECD
[6] = molecular target: human PD1 expressed on transfected Jurkat cells (human) (UniProt Q15116); assay: flow cytometry (whole cell binding) on h-PD1 transfected Jurkat cells, anti-human IgG Alexa Fluor 488
[7] = molecular target: his-tagged recombinant human PD1 ECD (human) (UniProt Q15116); assay: Octet, antibody loaded on the sensor, his-tagged h-PD1 ECD injected first, his-tagged h-TIGIT ECD second; concentrations not given
[8] = molecular target: his-tagged recombinant human PD1 ECD (human) (UniProt Q15116); assay: Octet, antibody on sensor
[9] = molecular target: human PD1 expressed on transfected Jurkat cells (human) (UniProt Q15116); assay: flow cytometry, h-PD1 Jurkat cells
[10] = molecular target: human TIGIT expressed on cells (stably transfected Jurkat cells) (human) (UniProt Q495A1); assay: whole cell binding to h-TIGIT stable cells, EC50 plotted against the blocking ELISA IC50
[11] = molecular target: T1, recombinant human TIGIT extracellular domain (ECD) (human) (UniProt Q495A1); assay: PVR blocking ELISA (blocked ligand: PVR), IC50 plotted against the whole cell binding EC50
T1 sequence: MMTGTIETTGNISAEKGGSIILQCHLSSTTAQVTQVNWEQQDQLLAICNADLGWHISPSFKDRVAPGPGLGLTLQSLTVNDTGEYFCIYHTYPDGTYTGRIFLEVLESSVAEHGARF

[12] = molecular target: T1, recombinant human TIGIT extracellular domain (ECD) (human); assay: ELISA, VHH supernatant
[13] = molecular target: T1, recombinant human TIGIT extracellular domain (ECD) (human); assay: ELISA, VHH supernatant on h-TIGIT ECD coated plates

B1: 3F10 bivalent VHH antibody (Fc fusion, not shown: small tags and cut ends)
chain: QVQLVESGGGLVQAGGSLRLSCASSEHTFSNFPMGWFRQAPGKERNVVAAIDSSGRLTYYADSVKGRFTISKDNAKSTVYLQMNSLKSEDTARYYCAARTGGVGYYSRSSFYNYWGQGTLVTVSS
Q: How did the binding [1] turn out when B1 was run?
A: Its binding is “binds”.

Q: And the binding [2]?
A: The binding was “binds”.

B2: 2A3-LT-Fc VLPLL (Fc mutations L235V, F243L, R292P, Y300L, P396L) (Fc fusion)
chain: QVQLVESGGGVVQPGRSLRLSCAASGGSFSSYPMGWFRQAPGKERESVAAISSDLRFTYYADSVKGRFTISRDNSKNTLYLQMNSLRAEDTAVYYCAARTSGVGYYSRAQWYDYWGQGTLVTVSSEPKSCDKTHTCPPCPAPELVGGPSVFLLPPKPKDTLMISRTPEVTCVVVDVSHEDPEVKFNWYVDGVEVHNAKTKPPEEQYNSTLRVVSVLTVLHQDWLNGKEYKCKVSNKALPAPIEKTISKAKGQPREPQVYTLPPSREEMTKNQVSLTCLVKGFYPSDIAVEWESNGQPENNYKTTPLVLDSDGSFFLYSKLTVDKSRWQQGNVFSCSVMHEALHNHYTQKSLSLSPGK
Q: Which binding [3] does the source give for B2 here?
A: Its binding is “binds”.

Q: And the binding [4]?
A: Its binding is “binds”.

Q: And the binding [5]?
A: The binding was “binds”.

B3: parental anti-PD1 monoclonal antibody (antibody, human IgG4 S228P, kappa, V domains shown)
VH: QVQLVESGGGLVKPGGSLRLSCAASGFTFSNYGMSWIRQAPGKGLEWVSTISGGGSNIYYADSVKGRFTISRDNAKNSLYLQMNSLRAEDTAVYYCVSYYYGIDFWGQGTSVTVSS
VL: DIQMTQSPSSLSASVGDRVTITCKASQDVTTAVAWYQQKPGKAPKLLIYWASTRHTGVPSRFSGSGSGTDFTLTISSLQPEDFATYYCQQHYTIPWTFGGGTKLEIKR
Q: How did the binding [6] turn out when B3 was run?
A: The binding was “binds”.

Q: What about the binding [7] of the same binder?
A: The binding was “binds”.

Q: What about the binding [8] of the same binder?
A: Its binding is “binds”.

Q: And the binding [9]?
A: Its binding is “binds”.

B4: 1G1-1C12 VHH (VHH)
VHH: QVQLVESGGGVVQPGRSLRLSCAASGPSFSSYPMGWFRQAPGKERESVAAISSDLRFTYYADSVKGRFTISRDNSKNTLYLQMNSLRAEDTAVYYCAARDSGSGYYSRKQWYDYWGQGTLVTVSS
Q: Which results are given for B4?
A: binding [10]: binds; binding [11]: binds; binding [12]: binds

B5: 4D5 VHH (VHH)
VHH: VDSGGGAVKAGDSLRLVCSAPGRTHGRAFNEYAMAWFRQGPGKERESVAAISSDGRFTYYAASVKGRFTISKDNAKSAAFLQMNSLKPEDTAVYYCAARDSGSGYYSRAQWYDYWGQGTQVTVSS
Q: B5 was tested. Which binding [13] did it give?
A: The binding was “binds”.

B6: 10H5 VHH (VHH)
VHH: GGGLVQAGGSLRLACTASDPPFANYETTFKSMAMGWVRHIPGKERELVAATNYNGGRTWYSNSAKARSTISRDNAKNTVYLQMSSLKPEDTAVYYCAAKATEGTTFPSRTYEFWGQGIQVTVSS
Q: B6 was tested. Which binding [13] did it give?
A: The binding was “binds”.
